Measured values: publication PMC1386686
Results are given in words; binding and its absence hold for the method and conditions named. In cells and extracts the contact can be indirect. Some results given as binding are weak or reduced against the parent protein; the word gives no strength.

By UniProt entry, the sequences of proteins in these tests, tags left out.
UniProt Q16539: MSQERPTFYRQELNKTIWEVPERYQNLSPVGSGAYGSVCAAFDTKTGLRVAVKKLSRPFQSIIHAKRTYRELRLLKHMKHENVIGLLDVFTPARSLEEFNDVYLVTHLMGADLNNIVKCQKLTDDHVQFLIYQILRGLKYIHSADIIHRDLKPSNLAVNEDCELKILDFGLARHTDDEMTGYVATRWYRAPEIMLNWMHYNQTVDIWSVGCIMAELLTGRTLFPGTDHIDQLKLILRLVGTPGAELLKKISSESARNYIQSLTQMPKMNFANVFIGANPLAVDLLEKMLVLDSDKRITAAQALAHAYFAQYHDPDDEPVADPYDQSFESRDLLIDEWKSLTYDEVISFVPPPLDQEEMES

Target: His6-p38 (UniProt Q16539)
Assay: pull-down; 4 μg purified His6-p38 on Ni2+-NTA beads, blocked with 5% dry milk; 20 μl in vitro translated 35S-MEF2C incubated with or without SUMO reaction mixture added, 1 hr at RT; SDS-PAGE and autoradiography; only the target purified

binding: binds
Substance: In vitro translated 35S-labeled MEF2C (from UniProt Q06413 1-473)
